One may read the AC50 as the concentration at which the activity in the assay is half-maximal. A higher AC50 goes with activity only at high concentration.

The list shows a part of the results. These are further read-outs of the screen, such as a control signal, another cell line or another target. No call is given for them. Compounds called inactive in the main read-out are mostly missing here. Words in brackets tell the shape of the fitted curve; partial curves, single points and poor fits give uncertain potencies.

This assay in a line: qHTS Assay for Lipid Storage Modulators in Drosophila S3 Cells.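 For cell number change: cells counted by Cell Tracker Red CMTPX staining in the red channel.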 As to conditions: BODIPY lipid droplet fluorescence, 18-24 h; for cell number change: measured here: cell count max response, cells fed with added oleic acid. The procedure, abridged: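 Laser-scanning cytometry quantifies lipid droplet accumulation (500–530 nm total intensity; droplet/cell object ratio) in oleic acid-fed (400 uM added) Drosophila S3 cells treated with a concentration series. 20 uM Triacsin C defined 100% inhibition.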
A general note: In qHTS, concentration-response curves come from the screen itself.

[1] abbreviates: measured here: lipid fluorescence (Fed channel) AC50, cells fed with added oleic acid.
Where [2] appears, read: measured here: cell number channel AC50, cells fed with added oleic acid.

For `Cc1onc(-c2ccccc2)c1C(=O)Nc1sccc1C#N`, the cell number change worked out at 18.5%. In addition, under setting [1], the AC50 is 13 µM [falling, partial curve].
Take `CCOC(=O)C1=C(c2ccccc2)NC(=O)N(C(C)=O)C1c1cccc([N+](=O)[O-])c1` (stereo unspecified): the cell number change amounted to 107%. Under setting [2], the AC50 was 20.6 µM [rising, single point].
As to `Nc1cnc(-c2ccccc2)nc1Cl`, the cell number change turned out to be 20.2%. In addition, under setting [1], the AC50 is 16.4 µM [rising, single point].
As for `Cc1cc(SCC(=O)Nc2c(C)n(C)n(-c3ccccc3)c2=O)nc2ccccc12`, the cell number change was found to be 16.7%. For the same molecule, under setting [1], the AC50 was 29.1 µM [rising, single point].
Regarding `Cc1nnc(SCC(=O)N(C2CCCCC2)C2CCS(=O)(=O)C2)n1C` (stereo unspecified), the cell number change amounted to 1.69%. Moreover, the AC50 under setting [1] was 1.16 µM [rising, full curve, poor fit].
As for `O=[N+]([O-])c1ccc(-c2nnc(-c3ccccc3)c(N3CCOCC3)n2)cc1`, the AC50 under setting [1] was 0.13 µM [rising, partial curve, poor fit].
On to `Cc1cccc(C)c1NC(=O)CNC(=O)CCNC(=O)c1ccco1`, for which the cell number change is 4.69%. Under setting [1], the AC50 is 0.731 µM [falling, full curve, poor fit].
Take `O=C(CNC(=O)c1ccc(Br)cc1)NCC(=O)OCc1ccc(Cl)cc1`: the cell number change was -22.1%.
As to `CCOC(=O)N1CCN(C(=O)c2c[nH]c3ccc(S(=O)(=O)N(C)c4cccc(C)c4)cc3c2=O)CC1`, the cell number change was -3.98%.
`COc1ccccc1CN(C)C(=O)c1ccc2c(c1)NC(=O)CS2`: the cell number change was determined as 73.9%. Under setting [2], the AC50 was 13 µM [rising, partial curve]. Further, the AC50 under setting [1] is 2.31 µM [rising, partial curve].
In the case of `CCOC(=O)c1c(C)[nH]c(C(=O)CN2CC(C)OC(C)C2)c1C` (stereo unspecified), the cell number change is -27.6%. The AC50 under setting [1] was 14.6 µM [falling, partial curve, poor fit].
For `O=C(Nc1cccc(F)c1)c1ccc(Br)o1`, the cell number change came to 14.2%. Besides, under setting [1], the AC50 was 29.1 µM [rising, single point].
Consider `CC(=O)Nc1cccc(OCC(=O)NS(=O)(=O)c2ccc(C)cc2)c1`, for which the cell number change was -16.9%. Further, the AC50 under setting [1] is 9.2 µM [falling, partial curve, poor fit].
On to `Cc1nc2cnccc2n1C`, for which the cell number change was -92.4%. Also, the AC50 under setting [2] was 18.4 µM [falling, partial curve]. In addition, under setting [1], the AC50 is 18.4 µM [falling, partial curve].
Consider `COc1ccc(NC2CCCN(C(=O)CN3CCOC3=O)C2)cc1OC` (stereo unspecified), for which the AC50 under setting [1] is 29.1 µM [rising, single point].
On to `C=CCOc1ccc(/C=C(\C#N)C(=O)Nc2ccccn2)cc1`, for which the cell number change was -18.1%.
Regarding `O=C1CN(S(=O)(=O)c2ccc(F)cc2)c2ccccc2N1`, the cell number change amounted to 4.53%. The AC50 under setting [1] is 29.1 µM [rising, single point].
As to `CCc1nccn1CCC(=O)N1CCCC(Nc2ccc(C(C)C)cc2)C1` (stereo unspecified), the cell number change stood at 28.7%.
Take `COC(=O)c1cnc2c(C(F)(F)F)cccc2c1OC`: the cell number change was -2.64%. Also, under setting [1], the AC50 was 29.1 µM [rising, single point].
As for `Cc1ccccc1Nc1nc(N)nc(COC(=O)c2cccc(S(=O)(=O)NCc3ccccc3)c2)n1`, the cell number change was -50%. The AC50 under setting [2] is 2.59 µM [falling, full curve, poor fit]. The AC50 under setting [1] was 3.26 µM [rising, full curve].
For `Cc1cc2cc(CNS(=O)(=O)c3ccc4ccccc4c3)ccc2n1C`, the cell number change was -12.4%. Moreover, under setting [1], the AC50 is 29.1 µM [falling, single point].
`O=c1[nH]c(CN2CCN(S(=O)(=O)/C=C/c3ccccc3)CC2)nc2ccccc12`: the AC50 under setting [1] is 1.46 µM [rising, partial curve].
Turning to `CC(C)c1ccc(COc2ccc(C(=O)N3CCOCC3)cc2)cc1`, the cell number change is -50.2%. For the same molecule, the concentration at half-maximal activity (AC50) under setting [2] is 14.6 µM [falling, single point]. Besides, the AC50 under setting [1] is 18.4 µM [falling, partial curve].
Regarding `COc1cccc(CNc2ccc3[nH]c(=O)[nH]c3c2)c1OCc1ccccc1`, the cell number change is 4.21%. For the same molecule, under setting [1], the AC50 is 0.291 µM [falling, single point].
For the molecule `Brc1cc(Br)c(Oc2cc(Br)c(Br)cc2Br)cc1Br`, the cell number change was 18.4%. Moreover, under setting [1], the AC50 is 0.326 µM [falling, partial curve].
As for `CN1C(=O)Cc2cc(S(=O)(=O)N3CCOCC3)ccc21`, the cell number change is 65.3%. Further, the half-maximal activity concentration (AC50) under setting [2] is 5.8 µM [rising, full curve]. Under setting [1], the AC50 is 4.61 µM [rising, single point].
`COc1ccc(CC(=O)OCC(=O)Nc2cccc(Br)c2)cc1`: the cell number change turned out to be 17.1%.
Consider `O=C(CN1C(=O)NC2(CCCCC2)C1=O)Oc1ccc2c(C(F)(F)F)cc(=O)oc2c1`, for which the cell number change came to 1.2%.
As to `CC(C)CCN1C(=O)c2ccc(C(=O)Nc3cccc(S(N)(=O)=O)c3)cc2C1=O`, the cell number change was -15.7%. Besides, the AC50 under setting [2] was 0.184 µM [falling, partial curve]. Under setting [1], the half-maximal activity concentration (AC50) was 0.058 µM [falling, full curve].
With `Cc1cc(NCc2ccccc2)nc(-c2ccccc2O)n1`, the cell number change was -34.8%. In addition, the AC50 under setting [2] is 14.6 µM [falling, partial curve]. For the same molecule, the AC50 under setting [1] was 13 µM [falling, partial curve, poor fit].
Regarding `CC1(C)C(=O)OC(c2cccs2)C2(CCCCC2)C1=O` (stereo unspecified), the cell number change is -5.47%.
As for `CN(C)S(=O)(=O)c1ccc(N2CCCC2=O)c([N+](=O)[O-])c1`, the cell number change is -5.75%. Further, the AC50 under setting [2] was 6.51 µM [rising, single point]. The AC50 under setting [1] is 5.8 µM [falling, full curve].
Consider `CCOc1ccc2nc(SCC(=O)Nc3ncccn3)[nH]c2c1`, for which the cell number change is 40.6%. Also, the AC50 under setting [2] is 7.31 µM [rising, partial curve, poor fit]. The AC50 under setting [1] was 32.6 µM [falling, partial curve].
As to `Cc1cccc(-n2ncc3c2CCCC3NC(=O)C2=CC(=O)CC(C)(C)O2)c1C` (stereo unspecified), the cell number change was -52%. The AC50 under setting [2] is 5.17 µM [falling, full curve]. The AC50 under setting [1] is 0.731 µM [falling, full curve].
With `Cc1ccc(C)c(NS(=O)(=O)c2ccc3[nH]c(=O)[nH]c3c2)c1`, the cell number change was 34%. In addition, the AC50 under setting [2] was 4.11 µM [rising, full curve, poor fit]. Also, the AC50 under setting [1] was 2.91 µM [rising, full curve].
`Cc1cnc(C(=O)Nc2ccc(C(=O)N3CCCCC3)cc2)cn1`: the cell number change turned out to be 16.8%. The AC50 under setting [1] was 5.8 µM [rising, full curve, poor fit].
Take `C[C@@H](C(=O)NCCc1c[nH]c2ccccc12)[C@H]1C[C@]1(C)[C@H](NC(=O)OCc1ccccc1)c1ccccc1`: the cell number change was -8.76%. Moreover, the AC50 under setting [1] is 0.651 µM [rising, full curve, poor fit].
For the molecule `CCN1CCN(c2ccc(S(=O)(=O)N3CCCCC3)cc2NC(=O)c2ccc([N+](=O)[O-])s2)CC1`, the cell number change was -28.1%. In addition, the AC50 under setting [2] is 4.61 µM [falling, full curve, poor fit]. Under setting [1], the AC50 was 3.66 µM [falling, partial curve].
`CC(NC(=O)CSc1nnc(-c2cccnc2)n1N)c1ccccc1` (stereo unspecified): the cell number change was -13.4%. For the same molecule, the AC50 under setting [1] was 0.398 µM [rising, full curve].
Take `COC(=O)c1[nH]c2cccc(OC)c2c1NC(=O)CN1CCC(C(N)=O)(N2CCCCC2)CC1`: the cell number change is -59.3%. Also, the half-maximal activity concentration (AC50) under setting [2] is 9.2 µM [falling, partial curve, poor fit]. Moreover, the half-maximal activity concentration (AC50) under setting [1] is 23.1 µM [falling, partial curve, poor fit].
Take `CCOc1ccc(NC(=O)Cn2nnc3c(cnn3-c3ccc(F)cc3)c2=O)cc1`: the cell number change is -6.5%. Besides, the half-maximal activity concentration (AC50) under setting [1] was 16.4 µM [falling, partial curve].
Turning to `NC(=S)Nc1cccc2cc3ccccc3cc12`, the cell number change stood at 17.9%. Under setting [1], the AC50 is 18.4 µM [rising, single point].
Regarding `CC1CCCN(CCCNS(=O)(=O)c2ccc3c(c2)CCN3C(=O)C2CC2)C1` (stereo unspecified), the cell number change worked out at 16.9%. Further, the concentration at half-maximal activity (AC50) under setting [1] is 29.1 µM [rising, partial curve, poor fit].
Take `C=C(C)CN(CC)C(=O)CSc1nc(O)cc(=O)n1C1CCCC1`: the cell number change was determined as 53.6%.
For the molecule `Cc1cc(=O)c2cccc(Br)c2[nH]1`, the cell number change is 16.2%. Moreover, under setting [1], the half-maximal activity concentration (AC50) was 32.6 µM [rising, partial curve, poor fit].
As to `CC(=O)Nc1ccc(S(=O)(=O)N2CCc3ccccc3C2CC(=O)O)cc1` (stereo unspecified), the cell number change came to 19.2%.
In the case of `CC1(C)CC2CC(C)(CN2S(=O)(=O)c2cccc(C(=O)OCC(=O)NC(N)=O)c2)C1` (stereo unspecified), the cell number change came to 9%. Further, the AC50 under setting [1] is 6.51 µM [rising, single point].
In the case of `COc1ccc(NC(=S)N2CCc3ccccc3C2)cc1`, the AC50 is 0.58 µM [rising, single point] under setting [2] and 0.58 µM [rising, single point] under setting [1].
Take `CCOCCCn1c(=S)[nH]c2cc(C(=O)N3CCN(c4ccccc4)CC3)ccc2c1=O`: the cell number change was -17.6%.
As to `CCOc1ccc(CCNC(=O)C2CCC(=O)N2CCc2ccccc2)cc1OCC` (stereo unspecified), the cell number change turned out to be 30.7%. In addition, the AC50 under setting [2] was 29.1 µM [rising, single point]. Besides, the AC50 under setting [1] is 16.4 µM [rising, partial curve].
Take `CCCCc1ccc(C2C3=C(CC(C)(C)CC3=O)NC3=C2C(=O)c2ccccc23)cc1` (stereo unspecified): the cell number change is -31%. Further, the AC50 under setting [2] was 29.1 µM [falling, single point].
Take `CC(C)c1ccc(NC(=O)C(c2ccccc2)N2CCN(C=O)CC2)cc1` (stereo unspecified): the cell number change was -2.97%. Further, the AC50 under setting [1] is 6.51 µM [falling, single point].
Take `COc1ccccc1/C=C1\SC(=S)N(CCC(=O)Nc2cccc(O)c2)C1=O`: the cell number change was -19.9%. Moreover, the AC50 under setting [1] was 0.58 µM [rising, single point].
As to `Cc1ccc(CNC(=O)COC(=O)CCCOc2ccc(Cl)cc2Cl)cc1`, the cell number change was determined as 0.994%. In addition, the AC50 under setting [1] is 0.206 µM [falling, full curve, poor fit].
Regarding `N#CCOC(=O)c1c2c(nc3ccccc13)CCC2`, the cell number change was determined as 49.1%. The half-maximal activity concentration (AC50) under setting [2] is 0.461 µM [rising, full curve, poor fit]. The AC50 under setting [1] is 0.461 µM [rising, full curve].
For `O=C(Nc1ncc(Cc2ccccc2)s1)C1CCCO1` (stereo unspecified), the cell number change was -21.6%. For the same molecule, under setting [1], the AC50 was 29.1 µM [falling, single point].
In the case of `COc1cc(/C=N\NC(=O)c2cccnc2)ccc1OC(=O)c1ccccc1Cl`, the cell number change was -19%. Under setting [1], the AC50 was 1.46 µM [falling, partial curve].

Values taken from PubChem BioAssay AID2685 (National Center for Advancing Translational Sciences (NCATS), 2010).
